Record: PubChem BioAssay AID1224830 (NIAID, 2016)
Here is a random part of about 18,000 reagents. Over the whole deposit, about 2,900 (16%) were called active. 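Calls are made per well; low scores hint the gene aids the LPS response, high scores that it dampens it.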 Entries without a mark were called inactive. Repeated entries: four replicate wells of each siRNA pool.

Assay: 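Host factors that control LPS-induced TNF expression in human macrophages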 (primary screen)
System: human THP-1 monocytic leukaemia cells, TNF dual-luciferase reporter clone, PMA-differentiated to macrophage-like cells
Knock-down reagent: siRNA pool against human genes, 50 nM
Time to read-out: LPS for 4 h, given about 3 days after siRNA transfection
Treatment: bacterial LPS (TLR4 ligand), 10 ng/ml
Measured: 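TNF firefly reporter luminescence divided by renilla, normalised to the plate median, then turned into a robust z-score for each replicate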
Direction: TNF reporter robust z-score: higher = stronger TNF reporter response to LPS
Rule for the call: 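Each well counts as active if its z-score is over 2.8 or under -1.5; controls are left without a call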

no.	gene knocked down	TNF reporter robust z-score
1	IL36A	-0.36
2	IL36A	-0.9
3	IL36A	-0.77
4	IL36A	-0.83
5	NUDT18	-0.24
6	NUDT18	-0.03
7	NUDT18	0.21
8	NUDT18	-0.41
9	PSMD9	-0.82
10	PSMD9	-0.03
11	PSMD9	-0.54
12	PSMD9	1.47
13	TMEM106A	2.58
14	TMEM106A	2.24
15	TMEM106A	2.71
16	TMEM106A	3.59 (active)
17	MYF5	-0.43
18	MYF5	2.07
19	MYF5	1.46
20	MYF5	-0.77
21	MAMLD1	0.33
22	MAMLD1	-0.66
23	MAMLD1	0.56
24	MAMLD1	0.03
25	ATOX1	-1.11
26	ATOX1	-2.23 (active)
27	ATOX1	-1.01
28	ATOX1	0.08
29	HNRNPH1	-0.25
30	HNRNPH1	-0.87
31	HNRNPH1	-0.82
32	HNRNPH1	-0.96
33	RGR	-0.09
34	RGR	0.02
35	RGR	-0.08
36	RGR	2.32
37	OR9G4	4.64 (active)
38	OR9G4	1.32
39	OR9G4	0.59
40	OR9G4	0.25
41	PSG6	-1.67 (active)
42	PSG6	-0.58
43	PSG6	-1.04
44	PSG6	-1.25
45	CDHR5	0.59
46	CDHR5	-0.36
47	CDHR5	-0.44
48	CDHR5	0.01
49	CRELD1	0.44
50	CRELD1	-0.28
51	CRELD1	-0.71
52	CRELD1	-0.09
53	ST13	0.76
54	ST13	-0.97
55	ST13	-0.6
56	ST13	-0.86
57	RALGAPA1	-0.99
58	RALGAPA1	-1.1
59	RALGAPA1	-1.19
60	RALGAPA1	-0.11
61	CACNA1D	-0.46
62	CACNA1D	0.28
63	CACNA1D	1.17
64	CACNA1D	-0.24
65	NCKIPSD	0.04
66	NCKIPSD	0.52
67	NCKIPSD	0.35
68	NCKIPSD	0.42
69	EPHA4	-0.34
70	EPHA4	0.92
71	EPHA4	-0.49
72	EPHA4	0.28
73	KIAA1755	1.1
74	KIAA1755	1.51
75	KIAA1755	0.52
76	KIAA1755	0.31
77	FABP2	0.79
78	FABP2	0.36
79	FABP2	0.17
80	FABP2	0
81	ZNF830	0.67
82	ZNF830	1.51
83	ZNF830	1.43
84	ZNF830	-0.19
85	ABCG1	0.14
86	ABCG1	1.1
87	ABCG1	0.09
88	ABCG1	0.7
89	RRH	-1.26
90	RRH	-0.38
91	RRH	-0.99
92	RRH	-0.72
93	CCDC146	-0.99
94	CCDC146	-0.05
95	CCDC146	-0.52
96	CCDC146	0.06
97	ADCY10	0.01
98	ADCY10	1.46
99	ADCY10	0.62
100	ADCY10	2.31
101	PAX6	0.11
102	PAX6	0.13
103	PAX6	0.24
104	PAX6	0.66
105	PPP1R17	1.74
106	PPP1R17	0.98
107	PPP1R17	0.04
108	PPP1R17	-0.77
109	TAF4B	-0.21
110	TAF4B	0.85
111	TAF4B	0.16

11 entries from above, set out differently:
gene knocked down	TNF reporter robust z-score
HNRNPH1	-0.96
RGR	-0.09
RGR	0.02
RGR	-0.08
RGR	2.32
OR9G4	4.64 (active)
OR9G4	1.32
OR9G4	0.59
OR9G4	0.25
PSG6	-1.67 (active)
PSG6	-0.58
